Results are given in words; binding and its absence hold for the method and conditions named. For some of these results: Binding can be weak; no strength is given.
Key:
[1] = molecular target: Integrator subunit INTS7 (human) (UniProt Q9NVH2); assay: condition: only free Integrator–PP2A–SOSS complex without the PEC (closed conformation); cryo-EM structure; free Integrator–PP2A complex in the closed conformation, from the free Integrator–PP2A–SOSS sample without the PEC; glycerol-gradient peak cross-linked with 0.2% glutaraldehyde; 3.1 Å; both purified
[2] = molecular target: Integrator subunit INTS7 (human) (UniProt Q9NVH2); assay: cryo-EM structure; post-termination complex (Integrator–PP2A–SOSS–CTD), a class of particles from the PEC–Integrator–PP2A–SOSS sample; glycerol-gradient peak cross-linked with 0.2% glutaraldehyde; 3.7 Å; both purified
PP2A-C (human) [3] = molecular target: PP2A-C (human) (UniProt P67775); assay: cryo-EM structure; free Integrator–PP2A complex in the closed conformation, from the free Integrator–PP2A–SOSS sample without the PEC; glycerol-gradient peak cross-linked with 0.2% glutaraldehyde; 3.1 Å; both purified
PP2A-C (human) [4] = molecular target: PP2A-C (human) (UniProt P67775); assay: cryo-EM structure; pre-termination complex (PEC–Nuc–Integrator–PP2A): preformed Integrator–PP2A with INTS11(E203Q) and NELF added to the stalled Pol II–DSIF–Nuc complex; glycerol-gradient peak cross-linked with 0.2% glutaraldehyde; overall resolution 4.1 Å; both purified

Row | binding [1] | binding [2] | binding (PP2A-C (human) [3]) | binding (PP2A-C (human) [4]) | Substance
1 | no binding | binds |  |  | Integrator subunit INTS3 (from UniProt Q68E01)
2 |  |  | binds | binds | Integrator subunit INTS6 (from UniProt Q9UL03 1-887)
